{"source": "PubChem BioAssay AID504793 (Drosophila RNAi Screening Center, 2011)", "test": "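Whole-genome screen for parts of the DNA damage checkpoint at G2/M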 (primary screen)", "cells": "Drosophila S2R+ cells", "reagents": "long dsRNA against Drosophila genes, about 0.25 µg dsRNA per well", "time to read-out": "4 days of dsRNA, then 4 hours of drug before read-out", "challenge": "doxorubicin 0.5 µM for 4 hours to cause double-strand breaks, in cells also given a low, harmless dose of dsRNA against nbs to sensitise the assay", "read-out": "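Per-well count of mitotic cells stained for phospho-histone H3 after doxorubicin exposure, used as mitotic index; counts are raw and not normalised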", "direction": "mitotic cells: higher = more cells in mitosis, weaker G2 arrest", "active means": "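Genes are called active only when high mitotic counts were reproduced with independent dsRNAs and mitosis was checked for delay without damage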", "calls": "active = confirmed in follow-up tests; inactive = not confirmed", "note": "The deposit covers about 23,000 reagents; below is a random part of those with a known target gene and a result. Of all reagents, 62 (0.27%) are marked active. 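Calls come from follow-up tests whose scores are not deposited, so confirmed genes may have low counts here; counts are not normalised per plate.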 The raw values are shown without normalisation. Unmarked entries are inactive. A plus sign joins genes that one reagent is predicted to hit."}
The opening 2 records, ahead of the listing:
{"target gene": "put (punt)", "amplicon": "DRSC17039", "mitotic cells, replicate 1": 2}
{"target gene": "CG42304 + Snup", "amplicon": "DRSC08276", "mitotic cells, replicate 1": 5}

Results, from the start:
{"target gene": "put (punt)", "amplicon": "DRSC17039", "mitotic cells, replicate 1": 2}
{"target gene": "CG42304 + Snup", "amplicon": "DRSC08276", "mitotic cells, replicate 1": 5}
{"target gene": "CG42304 + Snup", "amplicon": "DRSC08277", "mitotic cells, replicate 1": 4}
{"target gene": "CG42304 + Snup", "amplicon": "DRSC22781", "mitotic cells, replicate 1": 5}
{"target gene": "CG42304 + Snup", "amplicon": "DRSC23772", "mitotic cells, replicate 1": 5}
{"target gene": "laza (lazaro)", "amplicon": "DRSC11661", "mitotic cells, replicate 1": 5}
{"target gene": "laza (lazaro)", "amplicon": "DRSC23330", "mitotic cells, replicate 1": 9}
{"target gene": "laza (lazaro)", "amplicon": "DRSC29129", "mitotic cells, replicate 1": 2}
{"target gene": "CG11109", "amplicon": "DRSC11633", "mitotic cells, replicate 1": 11}
{"target gene": "CG5828", "amplicon": "DRSC02900", "mitotic cells, replicate 1": 8}
{"target gene": "CG5828", "amplicon": "DRSC24456", "mitotic cells, replicate 1": 6}
{"target gene": "CG31683 + CG18858", "amplicon": "DRSC02703", "mitotic cells, replicate 1": 4}
{"target gene": "CG11964", "amplicon": "DRSC14447", "mitotic cells, replicate 1": 6}
{"target gene": "CG11964", "amplicon": "DRSC25900", "mitotic cells, replicate 1": 2}
{"target gene": "CG1785", "amplicon": "DRSC18139", "mitotic cells, replicate 1": 7}
{"target gene": "CG1785", "amplicon": "DRSC30032", "mitotic cells, replicate 1": 12}
{"target gene": "CG12316", "amplicon": "DRSC09879", "mitotic cells, replicate 1": 5}
{"target gene": "CG12316", "amplicon": "DRSC27599", "mitotic cells, replicate 1": 10}
{"target gene": "yellow-d", "amplicon": "DRSC04589", "mitotic cells, replicate 1": 4}
{"target gene": "yellow-d", "amplicon": "DRSC26933", "mitotic cells, replicate 1": 7}
{"target gene": "Lrrk (Leucine-rich repeat kinase)", "amplicon": "DRSC15816", "mitotic cells, replicate 1": 10}
{"target gene": "Lrrk (Leucine-rich repeat kinase)", "amplicon": "DRSC21971", "mitotic cells, replicate 1": 13}
{"target gene": "Lrrk (Leucine-rich repeat kinase)", "amplicon": "DRSC26140", "mitotic cells, replicate 1": 5}
{"target gene": "CG15771", "amplicon": "DRSC18077", "mitotic cells, replicate 1": 6}
{"target gene": "CG13868", "amplicon": "DRSC06427", "mitotic cells, replicate 1": 6}
{"target gene": "Atg8b (Autophagy-related 8b)", "amplicon": "DRSC14501", "mitotic cells, replicate 1": 13}
{"target gene": "Atg8b (Autophagy-related 8b)", "amplicon": "DRSC24428", "mitotic cells, replicate 1": 8}
{"target gene": "nudE", "amplicon": "DRSC09000", "mitotic cells, replicate 1": 13}
{"target gene": "nudE", "amplicon": "DRSC10962", "mitotic cells, replicate 1": 76}
{"target gene": "nudE", "amplicon": "DRSC30057", "mitotic cells, replicate 1": 5}
{"target gene": "CG12237", "amplicon": "DRSC19449", "mitotic cells, replicate 1": 18}
{"target gene": "CG12237", "amplicon": "DRSC22256", "mitotic cells, replicate 1": 10}
{"target gene": "CG12237", "amplicon": "DRSC24647", "mitotic cells, replicate 1": 7}
{"target gene": "Rab9Db + Rab9D + Rab9E", "amplicon": "DRSC17656", "mitotic cells, replicate 1": 3}
{"target gene": "ATP6AP2 (ATPase H+ transporting accessory protein 2)", "amplicon": "DRSC16420", "mitotic cells, replicate 1": 7}
{"target gene": "CG3770", "amplicon": "DRSC04416", "mitotic cells, replicate 1": 6}
{"target gene": "nes (nessy)", "amplicon": "DRSC11375", "mitotic cells, replicate 1": 2}
{"target gene": "CG12902", "amplicon": "DRSC06217", "mitotic cells, replicate 1": 5}
{"target gene": "Cpr30B (Cuticular protein 30B)", "amplicon": "DRSC02728", "mitotic cells, replicate 1": 10}
{"target gene": "Cpr30B (Cuticular protein 30B)", "amplicon": "DRSC25204", "mitotic cells, replicate 1": 2}
{"target gene": "CG33307", "amplicon": "DRSC01349", "mitotic cells, replicate 1": 3}
{"target gene": "CG14102", "amplicon": "DRSC10103", "mitotic cells, replicate 1": 6}
{"target gene": "l(3)76BDm (lethal (3) 76BDm)", "amplicon": "DRSC11047", "mitotic cells, replicate 1": 7}
